Measurements published in patent publication US20170355705A1 (GlaxoSmithKline Intellectual Property (No.2) Limited, priority 2014, published 2017).
At least one compound was matched to its structure with a doubt left. Some compounds share one range, which may span the group rather than tell each member.

Target: T1, SIRT1 (Homo sapiens, UniProt Q96EB6)
T1 sequence (Q96EB6 1-747): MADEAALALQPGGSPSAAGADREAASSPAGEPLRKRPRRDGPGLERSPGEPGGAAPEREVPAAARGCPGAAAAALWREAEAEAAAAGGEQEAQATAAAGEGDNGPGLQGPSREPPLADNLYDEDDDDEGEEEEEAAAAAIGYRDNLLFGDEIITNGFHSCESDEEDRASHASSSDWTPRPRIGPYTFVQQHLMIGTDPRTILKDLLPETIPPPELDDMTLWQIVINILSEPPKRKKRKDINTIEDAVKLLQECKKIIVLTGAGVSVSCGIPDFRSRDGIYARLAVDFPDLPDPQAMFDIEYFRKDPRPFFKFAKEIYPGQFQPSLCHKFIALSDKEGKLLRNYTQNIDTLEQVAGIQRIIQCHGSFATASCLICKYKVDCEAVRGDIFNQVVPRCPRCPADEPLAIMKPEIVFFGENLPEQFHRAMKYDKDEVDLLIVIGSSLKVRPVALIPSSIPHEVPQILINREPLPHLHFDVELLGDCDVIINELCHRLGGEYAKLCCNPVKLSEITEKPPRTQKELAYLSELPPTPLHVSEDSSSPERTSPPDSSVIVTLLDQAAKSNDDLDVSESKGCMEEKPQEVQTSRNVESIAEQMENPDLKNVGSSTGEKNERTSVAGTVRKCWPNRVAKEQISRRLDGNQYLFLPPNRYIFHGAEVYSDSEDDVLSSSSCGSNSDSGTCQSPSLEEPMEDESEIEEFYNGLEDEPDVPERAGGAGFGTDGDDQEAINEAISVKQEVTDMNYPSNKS
Experiment: Trp mass spectrometry assay of SIRT1 activity (EC1.5, percent maximum activation)
Assay type: biochemical
Details: for TRP Activity (EC1.5, concentration of test compound that results in 150% activation of SIRT1): 0.5 μM peptide substrate, 120 μM βNAD+, 10 nM SIRT1, 25 minutes at 25° C.; for TRP Activity (EC1.5): EC1.5 = concentration giving 150% activation of SIRT1
Source text: Mass spectrometry based assays were used to identify modulators of SIRT1 activity. […] The peptide was labeled with the fluorophore 5TMR (excitation 540 nm/emission 580 nm) at the C-terminus. The sequence of the peptide substrate was based on p53 with several modifications. In addition, the methionine residue naturally present in the sequence was replaced with the norleucine because the methionine may be susceptible to oxidation during synthesis and purification.
The Trp mass spectrometry assay was conducted as follows. […] The SIRT1 protein was obtained by cloning the SirT1 gene into a T7-promoter containing vector, which was then expressed in BL21(DE3) bacterial cells and purified as described in further detail below. Test compound was added at varying concentrations to this reaction mixture and the resulting reactions were monitored. After the 25 minute incubation with SIRT1, 10 μL of 10% formic acid was added to stop the reaction. The resulting reactions were sealed and frozen for later mass spec analysis. The relative SIRT1 activity was then determined by measuring the amount of O-acetyl-ADP-ribose (OAADPR) formed (or, alternatively, the amount of deacetylated Trp peptide generated) by the NAD-dependent sirtuin deacetylation reaction in the presence of varying concentrations of the test compound versus control reactions lacking the test compound. The degree to which the test agent activated deacetylation by SIRT1 was expressed as EC1.5 (i.e., the concentration of compound required to increase SIRT1 activity by 50% over the control lacking test compound), and Percent Maximum Activation (i.e., the maximum activity relative to control (100%) obtained for the test compound).
This time point was the same as that used for test compounds and, within the linear range, the endpoint represents a change in velocity.
For the above assay, SIRT1 protein was expressed and purified as follows. The SirT1 gene was cloned into a T7-promoter containing vector and transformed into BL21(DE3). The protein was expressed by induction with 1 mM IPTG as an N-terminal His-tag fusion protein at 18° C. overnight and harvested at 30,000×g. Cells were lysed with lysozyme in lysis buffer (50 mM Tris-HCl, 2 mM Tris[2-carboxyethyl]phosphine (TCEP), 10 μM ZnCl2, 200 mM NaCl) and further treated with sonication for 10 min for complete lysis. The protein was purified over a Ni-NTA column (Amersham) and fractions containing pure protein were pooled, concentrated and run over a sizing column (Sephadex S200 26/60 global). The peak containing soluble protein was collected and run on an Ion-exchange column (MonoQ). Gradient elution (200 mM-500 mM NaCl) yielded pure protein. This protein was concentrated and dialyzed against dialysis buffer (20 mM Tris-HCl, 2 mM TCEP) overnight. The protein was aliquoted and frozen at −80° C. until further use.
“NT” means not tested; “ND” means not determinable.

Structure (SMILES)	TRP Activity (EC1.5, concentration of test compound that results in 150% activation of SIRT1)	TRP Activity (EC1.5)
O=C(Nc1cnccn1)N1c2nc(N3CCOC(C4CC4)C3)ccc2N2CC[C@H]1C2 (stereo partly shown)	B (EC1.5 1-25 μM)	
CC[C@@H]1CN(c2ccc3c(n2)N(C(=O)Nc2cnccn2)[C@H]2CCN3C2)CCO1	B (EC1.5 1-25 μM)	
C[C@@H]1CN(c2ccc3c(n2)N(C(=O)Nc2cnccn2)[C@H]2CCN3C2)CCO1 [Example 124, (4S)-7-((R)-2-methylmorpholino)-N-(pyrazin-2-yl)-3,4-dihydro-1,4-methanopyrido[2,3-b][1,4]diazepine-5(2H)-carboxamide]		B (EC1.5 1-25 μM)
C[C@H]1CN(c2ccc3c(n2)N(C(=O)Nc2cnccn2)[C@H]2CCN3C2)CCO1 [Example 125, (4S)-7-((S)-2-methylmorpholino)-N-(pyrazin-2-yl)-3,4-dihydro-1,4-methano pyrido[2,3-b][1,4]diazepine-5(2H)-carboxamide]		B (EC1.5 1-25 μM)
Cc1cc(-c2ccc3c(n2)N(C(=O)Nc2cnccn2)[C@H]2CCN3C2)cc(C)n1 [Example 135, (4S)-7-(2,6-dimethylpyridin-4-yl)-N-(pyrazin-2-yl)-3,4-dihydro-1,4-methanopyrido[2,3-b][1,4]diazepine-5(2H)-carboxamide]		B (EC1.5 1-25 μM)
Cc1cc(-c2ccc3c(n2)N(C(=O)Nc2cnc4c(c2)OCCO4)[C@H]2CCN3C2)ccn1 [Example 148, (4S)-N-(2,3-dihydro-[1,4]dioxino[2,3-b]pyridin-7-yl)-7-(2-methylpyridin-4-yl)-3,4-dihydro-1,4-methanopyrido[2,3-b][1,4]diazepine-5(2H)-carboxamide]		B (EC1.5 1-25 μM)
N#Cc1ccc(-c2ccc3c(n2)N(C(=O)Nc2cccnc2)[C@H]2CCN3C2)cn1 [Example 245]	B (EC1.5 1-25 μM)	
CC(C)n1cc(-c2ccc3c(n2)N(C(=O)Nc2cnccn2)[C@H]2CCN3C2)cn1 [Example 252]	B (EC1.5 1-25 μM)	
Cc1cc(-c2ccc3c(n2)N(C(=O)Nc2nccc(C)n2)[C@H]2CCN3C2)ccn1 [Example 263]	B (EC1.5 1-25 μM)	
Cn1ccc(-c2ccc3c(n2)N(C(=O)Nc2cnccn2)[C@H]2CCN3C2)cc1=O [Example 264]	B (EC1.5 1-25 μM)	
Cc1cc(-c2ccc3c(n2)N(C(=O)Nc2cc(-c4cnc(C)s4)ccn2)[C@H]2CCN3C2)ccn1 [Example 295]	A (EC1.5<1 μM)	
Nc1ccc(-c2ccc3c(n2)N(C(=O)Nc2ccccn2)[C@H]2CCN3C2)cn1 [Example 299]	A (EC1.5<1 μM)	
O=C(Nc1cncc(OCCCO)n1)N1c2nc(-c3cccc(C(F)(F)F)c3)ccc2N2CC[C@H]1C2 [Example 319]	A (EC1.5<1 μM)	
Cc1nn(C)cc1-c1ccnc(NC(=O)N2c3nc(-c4ccnc(C(F)(F)F)c4)ccc3N3CC[C@H]2C3)c1 [Example 324]	A (EC1.5<1 μM)	
Cc1cc(-c2ccc3c(n2)N(C(=O)Nc2cc(-n4ccnn4)ccn2)[C@H]2CCN3C2)ccn1 [Example 341]	A (EC1.5<1 μM)	
Cc1cc(-c2ccc3c(n2)N(C(=O)Nc2nccc(-c4cnc(C)o4)n2)[C@H]2CCN3C2)ccn1 [Example 353]	A (EC1.5<1 μM)	
Cc1cc(-c2ccc3c(n2)N(C(=O)Nc2nccc(-c4cnco4)n2)[C@H]2CCN3C2)ccn1 [Example 355]	A (EC1.5<1 μM)	
Cc1cc(-c2ccc3c(n2)N(C(=O)Nc2cc(N4C[C@@H](C)O[C@@H](C)C4)ccn2)[C@H]2CCN3C2)ccn1 [Example 356]	B (EC1.5 1-25 μM)	
O=C(Nc1ncnc2cccc(F)c12)N1c2nc(-c3cccc(C(F)(F)F)c3)ccc2N2CC[C@H]1C2 [Example 361]	A (EC1.5<1 μM)	
Cc1cc(-c2ccc3c(n2)N(C(=O)Nc2cc(-c4c(C)nn(C)c4C)ccn2)[C@H]2CCN3C2)ccn1 [Example 365]	B (EC1.5 1-25 μM)	
Cc1cc(-c2ccc3c(n2)N(C(=O)Nc2cc(-c4cnn(CC(F)(F)F)c4)ccn2)[C@H]2CCN3C2)ccn1 [Example 366]	B (EC1.5 1-25 μM)	
Cc1cc(-c2ccc3c(n2)N(C(=O)Nc2cc(N4CCCC4)ccn2)[C@H]2CCN3C2)ccn1 [Example 367]	B (EC1.5 1-25 μM)	
